According to PubChem BioAssay AID588590 (National Center for Advancing Translational Sciences (NCATS), 2011):
About 4,000 (1%) of roughly 390,000 compounds were called active. The inconclusive results got no clear call from the source; some entries with a clear call stand among them for comparison. The call rests on the fitted dose curve; in most records, active means well fitted inhibition curve with a large enough effect; inconclusive means small, poorly fitted or top-dose-only effect, or another doubt; inactive means no such curve, though single readings can be large or run the other way. Potencies of inconclusive entries are doubtful fits and often do not repeat.

The chains behind the UniProt entries cited, without tags or fusion partners. Where a name states a change or a piece, a line headed by the entry shows the natural chain unless it says otherwise.
UniProt Q9UNA4: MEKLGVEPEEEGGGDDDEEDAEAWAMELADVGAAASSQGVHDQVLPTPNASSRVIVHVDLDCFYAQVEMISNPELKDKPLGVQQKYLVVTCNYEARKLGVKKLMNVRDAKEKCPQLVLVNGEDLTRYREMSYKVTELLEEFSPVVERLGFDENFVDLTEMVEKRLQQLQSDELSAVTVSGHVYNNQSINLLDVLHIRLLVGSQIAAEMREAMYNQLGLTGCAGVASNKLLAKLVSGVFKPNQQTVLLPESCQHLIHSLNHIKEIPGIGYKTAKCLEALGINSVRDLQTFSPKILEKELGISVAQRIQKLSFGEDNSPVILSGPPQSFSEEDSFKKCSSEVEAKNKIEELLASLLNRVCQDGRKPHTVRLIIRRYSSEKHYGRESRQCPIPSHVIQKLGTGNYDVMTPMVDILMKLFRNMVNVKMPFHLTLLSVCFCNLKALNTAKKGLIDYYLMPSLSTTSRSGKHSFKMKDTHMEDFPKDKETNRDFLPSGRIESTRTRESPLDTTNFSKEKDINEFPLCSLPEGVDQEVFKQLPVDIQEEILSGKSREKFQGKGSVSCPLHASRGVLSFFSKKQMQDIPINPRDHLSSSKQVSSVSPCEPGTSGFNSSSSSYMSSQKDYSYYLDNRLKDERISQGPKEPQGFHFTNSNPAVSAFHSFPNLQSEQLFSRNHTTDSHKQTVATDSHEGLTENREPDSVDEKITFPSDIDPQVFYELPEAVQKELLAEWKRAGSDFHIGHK

These compounds were tested against DNA polymerase iota (Homo sapiens) (UniProt Q9UNA4) (assay: qHTS for Inhibitors of Polymerase Iota). Conditions: Pol iota fluorescent replication assay, 10 min; series mostly up to 115 µM.
Procedure, shortened: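 Pol iota at 10 nM preincubated 15 min with compounds at room temperature; reaction started with fluorescent substrate, 50 nM final. Fluorescence read kinetically at 0 and 10 min; buffer-only wells as negative control.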
Potency means the concentration at half of the fitted maximal effect.

| Structure (SMILES) | Potency |
| --- | --- |
| CCN(CC)c1ccc(N=Nc2nn(C)c(C)c2[N+](=O)[O-])cc1 | inactive |
| Cc1nc([N+](=O)[O-])cn1CC(O)c1ccc2c(c1)OCCO2 (configuration not stated) | inconclusive: 56.2 µM [inhibitor, partial curve, poor fit] |
| COc1ccc(CNC(=O)COC(=O)/C=C/c2ccco2)cc1 | inconclusive: 22.4 µM [inhibitor, full curve, poor fit] |
| O=C(O)C(c1ccccc1)C1(O)CCC1 (configuration not stated) | inconclusive: 100 µM [inhibitor, partial curve, poor fit] |
| COc1ccccc1NC(=O)N1CCN(c2nnc(C)c3c(C)n(-c4ccccc4)nc23)CC1 | inactive |
| CC1=C(c2ccc(C)c(C)c2)S(=O)(=O)N=C1N1CCC(C(=O)NCc2ccc(N(C)C)cc2)CC1 | inconclusive: 89.1 µM [inhibitor, single point] |
| COc1cc(O)c(C(CC(=O)N2CCCC(C)C2)c2ccc3c(c2)OCO3)c(OC)c1 (configuration not stated) | inactive |
| CCOC(=O)C1C2C=CC3(CN(Cc4cccs4)C(=O)C13)O2 (configuration not stated) | inconclusive: 3.16 µM [inhibitor, partial curve, poor fit] |
| COc1ccc(CCn2c(C)c(C(C)=O)c3cc(OC(=O)c4ccco4)ccc32)cc1OC | inconclusive: 35.5 µM [inhibitor, partial curve, poor fit] |
| O=C(C1=C(c2ccccc2)C(=O)c2ccccc2C1=O)c1ccccc1 | inconclusive: 12.6 µM [inhibitor, full curve, poor fit] |
| Nc1cc2c(cc1Cl)-c1ccc([N+](=O)[O-])cc1C2=NO | inactive |
| CC(C)C[C@H](NC(=O)c1cc2cc(Cl)ccc2n1C)C(=O)N1CCC[C@H]1C(=O)O | inconclusive: 89.1 µM [inhibitor, single point] |
| CCOC(=O)c1ccc(NC(=O)C(=O)NCc2ccccn2)cc1 | inconclusive: 70.8 µM [inhibitor, partial curve, poor fit] |
| CC(Oc1ccccc1)C(=O)Nc1c(C(=O)Nc2cccc(F)c2)oc2ccccc12 (configuration not stated) | inactive |
| Cc1ccc(C)c(N2CCN(S(=O)(=O)c3cc(C(=O)Nc4ccccc4C(F)(F)F)ccc3F)CC2)c1 | inactive |
| CCOC(=O)c1cc2sccc2n1CC(=O)c1ccc2c(c1)OCCO2 | inconclusive: 112 µM [inhibitor, single point] |
| CCOC(=O)CN1C(=O)N[C@@H](c2ccco2)C(C(=O)OC)=C1C | inconclusive: 35.5 µM [inhibitor, single point] |
| NS(=O)(=O)c1ccc(CNS(=O)(=O)c2cc(C(=O)O)ccc2Cl)cc1 | inconclusive: 79.4 µM [inhibitor, partial curve] |
| O=C1NN(c2ccccc2)C(=O)/C1=C/c1ccc(-c2ccc(Cl)c(C(=O)O)c2)o1 | inconclusive: 11.2 µM [inhibitor, full curve, poor fit] |
| CN(C)c1ccc(NC(=O)C2C3C=CC(C3)C2C(=O)O)cc1 (configuration not stated) | inconclusive: 35.5 µM [inhibitor, full curve, poor fit] |
| Cc1ccc(N2C(=O)[C@@H]3[C@H](C2=O)C2c4ccccc4C=CN2[C@@H]3C(=O)c2ccco2)c(C)c1 (some centres not stated) | inconclusive: 20 µM [inhibitor, full curve, poor fit] |

| Structure (SMILES) | Potency |
| --- | --- |
| Clc1ccccc1N=Nc1ccccn1 | inconclusive: 25.1 µM [inhibitor, full curve] |
| O=[N+]([O-])c1ccc(NN=Cc2cccc([N+](=O)[O-])c2)cc1 | inactive |
| CCNc1nc(NCC)nc(OCC(=O)O)n1 | inactive |
| O=C(Nc1ccc(Cl)cc1)C1CCCN(c2cnccn2)C1 (configuration not stated) | inconclusive: 20 µM [inhibitor, full curve] |
| O=C(Cn1c(=O)oc2ccccc21)N(Cc1ccccc1)C1CCS(=O)(=O)C1 (configuration not stated) | inconclusive: 3.16 µM [inhibitor, single point] |
| O=C(NCc1ccccn1)c1ccc2c(=O)n3nc(Nc4ccccc4)sc3nc2c1 | inconclusive: 22.4 µM [inhibitor, single point] |
| CC1=NN(c2ccccc2)C(=O)C1C(=O)c1cc([N+](=O)[O-])cc([N+](=O)[O-])c1 (configuration not stated) | active: 15.8 µM |
| CCOC(=O)c1cc2c(=O)n3ccccc3nc2n(CCCOC)c1=NC(=O)c1c(-c2c(F)cccc2Cl)noc1C | inconclusive: 14.1 µM [inhibitor, partial curve] |
| O=C(CN1C(=O)S/C(=C\c2ccccc2F)C1=O)NC1CCS(=O)(=O)C1 (configuration not stated) | inconclusive: 89.1 µM [inhibitor, single point] |
| CSc1cccc(NC(=O)C2CCN(S(=O)(=O)c3cnc[nH]3)CC2)c1 | inactive |
| CC(C)(C)OC(=O)N/N=C/c1cccc([N+](=O)[O-])c1 | inconclusive: 39.8 µM [inhibitor, partial curve, poor fit] |
| CCOC(=O)c1ccc(Nc2c(-c3ccc(OC)cc3)nc3nc[nH]n23)cc1 | inactive |
| Cc1cccc(Nc2nnc(SCc3cn4ccsc4n3)s2)c1 | inactive |
| Cc1ccc(S(=O)(=O)N2CCN(c3nc(-n4ccnc4)nc4ccccc34)CC2)cc1 | inconclusive: 14.1 µM [inhibitor, full curve, poor fit] |
| Cn1c(CCCNC(=O)c2ccco2)nc2ccccc21 | inconclusive: 20 µM [inhibitor, full curve] |
| COC(=O)C1=C[C@@H](C(=O)OC)[C@@H]2C3=C(C(=O)[C@@]2(C)NC(=O)c2ccccc2)[C@H](C)[C@@H]2C(=O)N(c4ccccc4)C(=O)[C@@H]2[C@@H]3C1 | inactive |
| O=[N+]([O-])c1ccc2c(c1)C(O)n1nc(-c3ccc(Cl)cc3Cl)nc1S2 (configuration not stated) | inconclusive: 31.6 µM [inhibitor, partial curve, poor fit] |
| Cc1cccc(N2CCN(Cc3nc(-c4cccc(Cl)c4)oc3C)CC2)n1 | inconclusive: 79.4 µM [inhibitor, partial curve, poor fit] |
| COc1ccc(-c2csc(NC(C)c3nc4cc(Cl)c(Cl)cc4n3CCOCCO)n2)cc1 (configuration not stated) | inconclusive: 39.8 µM [inhibitor, single point] |
| NC(=O)c1ccccc1NC(=O)c1ccccc1Cl | inconclusive: 63.1 µM [inhibitor, single point] |
| Cc1cc2ncn(S(=O)(=O)c3ccc(S(=O)(=O)N4CCCCCC4)cc3)c2cc1C | inconclusive: 89.1 µM [inhibitor, partial curve] |

An excerpt from above in order of SMILES length, falling:

| Structure (SMILES) | Potency |
| --- | --- |
| CCOC(=O)c1cc2c(=O)n3ccccc3nc2n(CCCOC)c1=NC(=O)c1c(-c2c(F)cccc2Cl)noc1C | inconclusive: 14.1 µM [inhibitor, partial curve] |
| CC1=C(c2ccc(C)c(C)c2)S(=O)(=O)N=C1N1CCC(C(=O)NCc2ccc(N(C)C)cc2)CC1 | inconclusive: 89.1 µM [inhibitor, single point] |
| CCOC(=O)c1cc2sccc2n1CC(=O)c1ccc2c(c1)OCCO2 | inconclusive: 112 µM [inhibitor, single point] |
| COc1ccc(CNC(=O)COC(=O)/C=C/c2ccco2)cc1 | inconclusive: 22.4 µM [inhibitor, full curve, poor fit] |

More entries:

| Structure (SMILES) | Potency |
| --- | --- |
| COc1ccc(-n2nc3c(=O)[nH][nH]c3cc2=O)cc1 | inconclusive: 50.1 µM [inhibitor, partial curve, poor fit] |
| COc1ccc(CCNC(=O)c2cc(Nc3ccccc3)nc3ccccc23)cc1OC | active: 79.4 µM |
| CC1CCc2c(sc3nc(SCC(=O)NCc4ccco4)nc(N)c23)C1 (configuration not stated) | inconclusive: 11.2 µM [inhibitor, full curve, poor fit] |
| COc1ccc(C2C(C(C)=O)=C(O)C(=O)N2c2ccc(C)cc2)cc1 (configuration not stated) | inconclusive: 44.7 µM [inhibitor, partial curve] |
| O=S(=O)(NCCc1csc(-c2cccc(F)c2)n1)c1cc(F)ccc1F | inconclusive: 100 µM [inhibitor, partial curve, poor fit] |
| CC(=O)c1ccc(NC(=O)[C@@H]2CCCN2C2=NS(=O)(=O)c3ccccc32)cc1 | inconclusive: 56.2 µM [inhibitor, partial curve, poor fit] |
| COC(=O)c1c(NC(=O)c2cccc(S(=O)(=O)N3CCN(C)CC3)c2)sc(C)c1C | inconclusive: 31.6 µM [inhibitor, single point] |
| CCCn1ccc2c(OCC(=O)Nc3ccccc3C(=O)OCC)cccc2c1=O | inactive |
| Cc1ccc(NC(=O)Cn2c(=O)n(Cc3ccc(F)cc3)c(=O)c3cccnc32)cc1C | inconclusive: 89.1 µM [inhibitor, partial curve, poor fit] |
| O=C(Cc1csc(N2CCOCC2)n1)N/N=C/c1ccc(O)c(O)c1O | inconclusive: 1.78 µM [inhibitor, full curve, poor fit] |
| Cc1nc2c(c(C)nn2-c2ccccc2)c(C)c1CCC(=O)Nc1ccccc1 | inconclusive: 0.631 µM [inhibitor, full curve, poor fit] |
| CCCCSc1ncc(C(=O)OCC)c(N)n1 | inconclusive: 39.8 µM [inhibitor, single point] |
| O=C(Nc1ccc(Oc2cccc3ccccc23)cc1)c1ccco1 | inconclusive: 79.4 µM [inhibitor, single point] |
| O=C1CS/C(=C\S(=O)(=O)c2ccc(Cl)cc2)N1 | inconclusive: 39.8 µM [inhibitor, partial curve, poor fit] |
| C/C(=N\Nc1nc(N2CCCCCC2)nc(N2CCCCCC2)n1)c1ccccc1 | inconclusive: 79.4 µM [inhibitor, partial curve, poor fit] |
| CCOC(=O)C1CCN(S(=O)(=O)c2ccc(-c3cc(C(F)(F)F)n(C)n3)s2)CC1 | inconclusive: 7.08 µM [inhibitor, full curve, poor fit] |
| Cc1nnc(C)c2c(C)n(C(C)c3ccccc3)c(C)c12 (configuration not stated) | inconclusive: 39.8 µM [inhibitor, single point] |
| COc1ccc(CN2CCN(Cc3ccc(Br)cc3)CC2)c(OC)c1OC | inconclusive: 50.1 µM [inhibitor, partial curve, poor fit] |
| CC(=O)Nc1ccc(S(=O)(=O)NC2(C(F)(F)F)C(=O)Nc3c2c(=O)[nH]c(=O)n3Cc2ccccc2)cc1 (configuration not stated) | inactive |
| CC(C)CC(C(=O)NC(C)(C)C)N(Cc1ccccc1Cl)C(=O)c1snc(C(N)=O)c1N (configuration not stated) | inactive |
